Percent effect of library compounds

Chains of the proteins cited; added tags and fusions are not shown. Residues count along the entry.
UniProt P9WFT3, whole entry: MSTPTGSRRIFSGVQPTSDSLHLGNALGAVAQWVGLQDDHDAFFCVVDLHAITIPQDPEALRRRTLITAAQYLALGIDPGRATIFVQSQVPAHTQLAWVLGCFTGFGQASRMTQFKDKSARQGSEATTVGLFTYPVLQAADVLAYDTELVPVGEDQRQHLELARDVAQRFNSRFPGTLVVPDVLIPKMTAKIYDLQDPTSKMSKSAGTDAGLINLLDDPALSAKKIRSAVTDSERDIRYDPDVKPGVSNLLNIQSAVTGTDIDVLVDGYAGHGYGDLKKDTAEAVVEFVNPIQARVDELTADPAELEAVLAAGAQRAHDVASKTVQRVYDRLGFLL
UniProt P9WNZ1, whole entry: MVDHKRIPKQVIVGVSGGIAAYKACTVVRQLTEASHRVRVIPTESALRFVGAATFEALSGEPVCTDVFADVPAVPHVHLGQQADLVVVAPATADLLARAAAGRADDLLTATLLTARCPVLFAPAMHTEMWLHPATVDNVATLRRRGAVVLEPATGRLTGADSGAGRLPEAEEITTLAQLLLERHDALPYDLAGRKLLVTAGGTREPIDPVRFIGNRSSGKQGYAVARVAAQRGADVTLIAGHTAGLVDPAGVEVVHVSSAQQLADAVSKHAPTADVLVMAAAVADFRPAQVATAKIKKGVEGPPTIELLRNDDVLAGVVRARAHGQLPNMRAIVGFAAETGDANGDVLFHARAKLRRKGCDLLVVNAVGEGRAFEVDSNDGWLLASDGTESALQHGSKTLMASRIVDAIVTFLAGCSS
UniProt A4I591, 1-473: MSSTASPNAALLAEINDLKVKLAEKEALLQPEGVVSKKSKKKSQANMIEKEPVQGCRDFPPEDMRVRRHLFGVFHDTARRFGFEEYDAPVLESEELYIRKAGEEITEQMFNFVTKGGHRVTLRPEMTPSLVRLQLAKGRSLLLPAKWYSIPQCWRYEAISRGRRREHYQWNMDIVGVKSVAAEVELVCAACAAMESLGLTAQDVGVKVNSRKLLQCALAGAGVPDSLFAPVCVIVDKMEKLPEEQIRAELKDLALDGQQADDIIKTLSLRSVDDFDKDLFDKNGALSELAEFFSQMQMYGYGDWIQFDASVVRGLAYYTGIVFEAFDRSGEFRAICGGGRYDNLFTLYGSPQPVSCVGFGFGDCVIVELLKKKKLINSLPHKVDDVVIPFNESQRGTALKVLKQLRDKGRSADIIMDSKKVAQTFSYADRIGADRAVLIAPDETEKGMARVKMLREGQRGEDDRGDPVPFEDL
UniProt I6X8D2, whole entry: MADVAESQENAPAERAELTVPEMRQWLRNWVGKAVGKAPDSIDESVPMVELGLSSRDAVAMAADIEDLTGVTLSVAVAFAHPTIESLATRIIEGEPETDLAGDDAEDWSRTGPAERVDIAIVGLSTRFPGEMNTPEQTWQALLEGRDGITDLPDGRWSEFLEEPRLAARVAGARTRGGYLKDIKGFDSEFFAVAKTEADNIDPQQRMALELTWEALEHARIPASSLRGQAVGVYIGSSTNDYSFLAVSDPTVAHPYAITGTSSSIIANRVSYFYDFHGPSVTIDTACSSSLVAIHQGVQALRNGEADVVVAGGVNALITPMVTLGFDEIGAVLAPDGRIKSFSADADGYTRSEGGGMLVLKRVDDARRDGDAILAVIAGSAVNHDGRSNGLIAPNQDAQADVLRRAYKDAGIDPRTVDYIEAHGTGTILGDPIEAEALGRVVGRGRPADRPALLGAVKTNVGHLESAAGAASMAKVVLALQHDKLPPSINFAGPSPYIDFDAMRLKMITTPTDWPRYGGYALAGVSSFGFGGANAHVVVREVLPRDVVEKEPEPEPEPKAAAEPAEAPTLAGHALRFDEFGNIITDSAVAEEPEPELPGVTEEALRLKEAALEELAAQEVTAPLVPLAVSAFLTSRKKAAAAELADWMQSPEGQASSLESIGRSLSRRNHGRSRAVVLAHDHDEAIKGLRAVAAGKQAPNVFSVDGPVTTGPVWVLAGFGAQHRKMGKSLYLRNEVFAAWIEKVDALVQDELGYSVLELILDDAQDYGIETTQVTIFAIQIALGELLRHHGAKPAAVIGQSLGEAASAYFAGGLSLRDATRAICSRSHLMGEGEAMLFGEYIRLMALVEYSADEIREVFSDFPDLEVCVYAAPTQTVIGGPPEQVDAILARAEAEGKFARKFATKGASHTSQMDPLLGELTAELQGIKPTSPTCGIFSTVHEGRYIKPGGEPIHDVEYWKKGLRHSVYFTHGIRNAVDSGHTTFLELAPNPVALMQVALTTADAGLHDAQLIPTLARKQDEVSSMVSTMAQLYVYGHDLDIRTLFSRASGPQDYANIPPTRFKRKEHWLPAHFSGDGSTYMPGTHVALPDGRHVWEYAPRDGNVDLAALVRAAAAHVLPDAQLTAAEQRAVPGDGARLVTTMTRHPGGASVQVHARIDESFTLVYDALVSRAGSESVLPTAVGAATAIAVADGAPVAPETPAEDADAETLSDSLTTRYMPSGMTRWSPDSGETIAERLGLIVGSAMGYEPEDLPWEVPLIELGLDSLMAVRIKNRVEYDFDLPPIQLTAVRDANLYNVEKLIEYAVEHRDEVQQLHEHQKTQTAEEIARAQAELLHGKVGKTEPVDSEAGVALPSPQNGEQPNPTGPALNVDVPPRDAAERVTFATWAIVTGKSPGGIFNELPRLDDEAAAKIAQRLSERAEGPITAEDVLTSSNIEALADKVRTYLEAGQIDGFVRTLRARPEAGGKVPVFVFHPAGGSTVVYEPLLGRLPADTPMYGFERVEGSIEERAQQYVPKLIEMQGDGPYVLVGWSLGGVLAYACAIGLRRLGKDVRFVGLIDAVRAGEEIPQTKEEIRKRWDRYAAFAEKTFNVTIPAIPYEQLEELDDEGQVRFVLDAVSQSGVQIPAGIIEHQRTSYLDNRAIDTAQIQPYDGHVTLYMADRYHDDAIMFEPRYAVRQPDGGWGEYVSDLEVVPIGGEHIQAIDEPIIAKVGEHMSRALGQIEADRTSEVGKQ

Measurements from “University of Dundee, Small-Polar-MMV Screening Library” (2021), ChEMBL document CHEMBL3988442.

The filed quantity is “Percent Effect” (%). The controls that fix the scale are not given in the record; negative values are as filed. This is an unselected part of the compounds tested.

MtTrpRS: 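Tryptophan-tRNA ligase, Mycobacterium tuberculosis (UniProt P9WFT3). Enzyme assay of tryptophanyl-tRNA synthetase; the read-out is not stated. Concentration: 10 µM. Higher most likely means stronger inhibition; the record gives no direction and few retests gave an IC50. Of about 65,000 compounds tested this way, about 64 (0.098%) reached 50% or more in at least one test.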
CoaBC: 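Coenzyme A biosynthesis protein CoaBC, Mycobacterium tuberculosis (UniProt P9WNZ1). Enzyme assay of CoaBC with a phosphate dye (Biomol Green) read at 650 nm. Tested at 30 µM. Direction is inferred from only a few compounds that gave an IC50; most scored high, so higher reads as stronger inhibition. Most strong results did not repeat in a second test. Size under these conditions: about 67,000 compounds, about 40 of them at 50% or above in at least one test.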
LiHisRS: 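Enzyme assay of histidyl-tRNA synthetase; the read-out is not stated. Target: Histidine-tRNA ligase, Leishmania infantum (UniProt A4I591). Compounds at 30 µM. The record gives no direction; compounds that gave an IC50 in retests scored well above the rest, so higher reads as stronger inhibition. The assay is labelled LdHisRS but filed under L. infantum. Of about 69,000 compounds tested this way, about 410 (0.6%) reached 50% or more in at least one test.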
Pks13 thioesterase: 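Enzyme assay of the thioesterase domain of polyketide synthase 13; the read-out is not stated. Target: Polyketide synthase Pks13, Mycobacterium tuberculosis (UniProt I6X8D2). Tested at 30 µM. Higher reads as stronger inhibition (inferred from which compounds were picked for retests). Of about 67,000 compounds tested this way, about 300 (0.46%) reached 50% or more in at least one test.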

With CN(C)C(=O)C1CCC2(CCN(C(=O)Nc3ccc(F)cc3)CC2)O1 (centres undefined) the screen gave CoaBC: 5.322%; LiHisRS: 15.84%; Pks13 thioesterase: -13.31%.
With COCCNc1ccc(-c2noc([C@@H]3CCCN3)n2)cn1 the screen gave MtTrpRS: 0.5271%; CoaBC: 0.6772%; LiHisRS: -8.333%.
With Cc1cnn(CC2CCCN2C(=O)Cn2nc(C)c(Cl)c2C)c1 (centres undefined) the screen gave MtTrpRS: 0.7101%; CoaBC: 1.015%; LiHisRS: 20%; Pks13 thioesterase: -29.67%.
With Cc1csc(CCCNC(C)CC(=O)Nc2ccc(F)cc2)n1 (centres undefined) the screen gave MtTrpRS: -3.419%; CoaBC: -5.447%; LiHisRS: 8.108%; Pks13 thioesterase: -4.936%.
With COCCn1/c(=N\C(=O)CN(C)S(C)(=O)=O)sc2cc(C)ccc21 the screen gave MtTrpRS: 2.603%; CoaBC: -0.3764%; LiHisRS: 6.78%; Pks13 thioesterase: 4.437%.
With Cc1c(C(=O)N2CC(Cc3nccc4ccn(C)c34)C2)cnn1C the screen gave CoaBC: 1.859%; LiHisRS: 0%; Pks13 thioesterase: 21.63%.
With Cn1cnc2c1CCN(c1ccnc(-c3ccccc3)n1)C2 the screen gave MtTrpRS: 0.2601%; CoaBC: -16.32%; LiHisRS: 21.92%; Pks13 thioesterase: -24.63%.
With Cn1c(CCNC(=O)CC[C@@H]2CCCN3CCCC[C@H]23)n[nH]c1=O the screen gave MtTrpRS: 1.509%; CoaBC: 10.49%; LiHisRS: 7.527%; Pks13 thioesterase: -20.26%.
With CCc1nc(C)c(C(=O)NCCn2nc3ccccn3c2=O)s1 the screen gave MtTrpRS: -4.161%; CoaBC: 5.106%; LiHisRS: 11.01%; Pks13 thioesterase: -4.964%.
With COc1cccc(CN(C)C(=O)CSc2ccc3c(c2)OCCO3)c1 the screen gave MtTrpRS: 0.3178%; CoaBC: 0.6748%; LiHisRS: 2.857%; Pks13 thioesterase: -0.4271%.
With Cc1nc(C(C)C)sc1C(=O)NS(=O)(=O)c1ccc(C#N)cc1 the screen gave MtTrpRS: -2.399%; CoaBC: 1.493%; LiHisRS: 17.31%; Pks13 thioesterase: -3.112%.
With O=C(Cn1ncc(N2CCCC2)cc1=O)Nc1ccc2nccnc2c1 the screen gave MtTrpRS: -2.553%; CoaBC: -3.083%; LiHisRS: 12.9%; Pks13 thioesterase: 5.325%.
With Cc1ccc2nc(C)c(C)c(C(=O)NCCCn3ccnn3)c2c1 the screen gave MtTrpRS: -3.259%; CoaBC: -3.361%; LiHisRS: 4.274%; Pks13 thioesterase: 18.06%.
With CC(C)c1nn(C)c(N(C)C)c1CNCc1cccnc1 the screen gave MtTrpRS: 1.847%; CoaBC: 2.146%; LiHisRS: 14.75%; Pks13 thioesterase: -37.73%.
With CCC(C)(O)CNC(=O)Nc1ccc(C)cc1Br (centres undefined) the screen gave MtTrpRS: 0.3458%; CoaBC: 0.495%; LiHisRS: 18%; Pks13 thioesterase: -16.55%.
With NCC1(c2cccc(C(F)(F)F)c2)CCOCC1 the screen gave MtTrpRS: 2.627%; CoaBC: 4.348%; LiHisRS: 13.46%; Pks13 thioesterase: -20.7%.
With CN(C)C(=O)CN1CCN(c2ccnc3c(F)ccc(F)c23)CC1 the screen gave MtTrpRS: -4.124%; CoaBC: 2.269%; LiHisRS: 14.29%; Pks13 thioesterase: -24.22%.
With c1csc(CN2Cc3nccn3CC(Cn3cncn3)C2)n1 (centres undefined) the screen gave MtTrpRS: -0.9046%; CoaBC: 5.376%; LiHisRS: 7.619%.
With Cc1cccc(C(C)C)c1NC(=O)CN(C)C(C)c1nccs1 (centres undefined) the screen gave MtTrpRS: 1.519%; CoaBC: 10.14%; LiHisRS: 20%; Pks13 thioesterase: 4.007%.
With c1cc(-c2ccc3c(c2)C2(CCNCC2)CC3)ccn1 the screen gave MtTrpRS: 1.402%; LiHisRS: 13.79%; Pks13 thioesterase: -6.469%.
With Cc1nc2c(c(NCC3Cc4ccccc4CN3C)n1)CCNCC2 (centres undefined) the screen gave MtTrpRS: -0.9356%; CoaBC: -33.47%; LiHisRS: -10.53%; Pks13 thioesterase: -27.58%.
With CN(Cc1cn[nH]c1-c1ccc(F)cc1)C(=O)CCC1CC1 the screen gave MtTrpRS: -1.165%; CoaBC: 4.176%; LiHisRS: -2.857%; Pks13 thioesterase: -17.14%.
With Cn1nc(N2CCCC(C(=O)Nc3nc4ccccc4s3)C2)ccc1=O (centres undefined) the screen gave MtTrpRS: 0.1236%; CoaBC: 1.022%; LiHisRS: 25.97%; Pks13 thioesterase: -4.845%.
With CN(Cc1ccsc1)C(=O)c1ccc(C2CCCO2)s1 (centres undefined) the screen gave MtTrpRS: 4.747%; LiHisRS: 0.8333%; Pks13 thioesterase: 9.088%.
With CN(C)C(=O)c1nc(-c2ccc(S(C)(=O)=O)cc2)c2cnccn12 the screen gave MtTrpRS: -7.692%; CoaBC: -3.684%; LiHisRS: -1.379%; Pks13 thioesterase: 9.326%.
With COc1ccc(F)c(NCc2ccc(C(=O)N(C)C)[nH]2)c1 the screen gave MtTrpRS: -1.519%; CoaBC: -2.335%; LiHisRS: -18.92%; Pks13 thioesterase: -7.776%.

3 of the entries, repeated:

With CC(C)c1nn(C)c(N(C)C)c1CNCc1cccnc1 the screen gave MtTrpRS: 1.847%; CoaBC: 2.146%; LiHisRS: 14.75%; Pks13 thioesterase: -37.73%.
With Cc1nc2c(c(NCC3Cc4ccccc4CN3C)n1)CCNCC2 (centres undefined) the screen gave MtTrpRS: -0.9356%; CoaBC: -33.47%; LiHisRS: -10.53%; Pks13 thioesterase: -27.58%.
With COc1cccc(CN(C)C(=O)CSc2ccc3c(c2)OCCO3)c1 the screen gave MtTrpRS: 0.3178%; CoaBC: 0.6748%; LiHisRS: 2.857%; Pks13 thioesterase: -0.4271%.